In patent publication US8551456B2, “Combination therapy and methods for treating bacterial biofilms” (priority 2010, dated 2013):
At least one compound was matched to its structure with a doubt left.

Tested on: P. aeruginosa wild-type PAO1 biofilms
Test: Combined TMP and antibiotic treatment of biofilms in the dark, CSLM LIVE/DEAD
Type: cell-based, Pseudomonas aeruginosa
Conditions: TMP 225 μM 10 min then antibiotic 100 μg ml^−1 2 h
Description: Biofilms were grown on glass slides as described above. […] Slides were incubated in tobramycin for 2 h at 37° C. All incubations were performed in the dark. Cell viability within biofilms was assessed using the LIVE/DEAD BacLight bacterial viability kit and visualized with an Olympus FV1000 CSLM as described above.
Bacterial viability was determined using the LIVE/DEAD BacLight Bacterial Viability assay. The images show horizontal optical sections from the midpoint of the biofilms flanked by vertical optical sections in biofilms treated with panel A showing tobramycin alone and panel B showing TMP+tobramycin.
Using the same protocol used in Example 3 for tobramycin, additional antibiotics were tested to aid in the elucidation of the mechanism of bacterial biofilm disruption in the absence of photoactivation.
Bacterial viability was determined using the LIVE/DEAD BacLight Bacterial Viability assay. Cells staining red are considered dead while cells staining green are alive. […] In summary, panels C, E, G, I, K and M received the respective antibiotic alone, and panels B, D, F, H, J, L and N were treated with the combination of TMP and antibiotic.

Compound	gain in killing by the addition of TMP to the antibiotic	red (dead) staining with antibiotic + TMP versus antibiotic alone (FIGS. 5A and 5B)
NC[C@H]1O[C@H](O[C@H]2[C@H](O)[C@@H](O[C@H]3O[C@H](CO)[C@@H](O)[C@H](N)[C@H]3O)[C@H](N)C[C@@H]2N)[C@H](O)[C@@H](O)[C@@H]1O [kanamycin]	behaved similarly to tobramycin	significant increased red staining
CN(C)[C@@H]1C(O)=C(C(N)=O)C(=O)[C@@]2(O)C(O)=C3C(=O)c4c(O)cccc4[C@@](C)(O)[C@H]3C[C@@H]12 [tetracycline]	behaved similarly to tobramycin	significant increased red staining
